In assay [1] the target is prohibitin-2 (PHB2) (human (endogenous in MEC-1)) (UniProt Q99623). As to the kind of experiment: co-IP; IgM MEC-1 cells lysed in Buffer A; anti-PHB2 on Protein G dynabeads o/n at 4 °C; blot with anti-CD79a and anti-PHB2.
Assay [2] has the same target. The assay is described as follows: co-IP; IgG-switched MEC-1 cells lysed in Buffer A; anti-PHB2 on Protein G dynabeads o/n at 4 °C; blot with anti-CD79a and anti-PHB2.

By UniProt entry, the sequences of proteins in these tests, tags left out. Residues count along the entry.
UniProt Q99623: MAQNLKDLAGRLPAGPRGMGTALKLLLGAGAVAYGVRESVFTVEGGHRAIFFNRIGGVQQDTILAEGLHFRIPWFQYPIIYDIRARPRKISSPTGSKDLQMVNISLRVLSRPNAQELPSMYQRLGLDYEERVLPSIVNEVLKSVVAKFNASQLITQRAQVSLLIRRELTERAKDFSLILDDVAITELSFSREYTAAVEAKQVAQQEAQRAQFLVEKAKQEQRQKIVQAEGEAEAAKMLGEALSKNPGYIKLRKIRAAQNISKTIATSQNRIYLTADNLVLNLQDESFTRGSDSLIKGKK
UniProt P11912, residues 33-226: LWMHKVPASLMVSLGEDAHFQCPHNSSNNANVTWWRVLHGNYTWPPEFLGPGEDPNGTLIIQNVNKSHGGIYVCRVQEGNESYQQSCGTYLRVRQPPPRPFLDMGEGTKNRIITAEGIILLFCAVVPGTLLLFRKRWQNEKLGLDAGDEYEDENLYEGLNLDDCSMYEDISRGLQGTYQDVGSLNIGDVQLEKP

In article PMC8024197 one finds binding data, which are given here for 1 substance.

These are yes or no findings as the source states them, for the method shown. In cells and extracts the contact can be indirect. Some results given as binding are weak or reduced against the parent protein; the word gives no strength.

Consider CD79a (from UniProt P11912 33-226), for which the binding result in assay [1] is “binds”; in assay [2] it was “binds weakly”.
